From patent US6919425B2, “Isolation of a cell-specific internalizing peptide that infiltrates tumor tissue for targeted drug delivery” (Board of Regents, The University of Texas System, priority 2000, dated 2005)
Entries after “also recorded” stand apart in the source; their conditions may differ. Not every detail of the peptide structures is certain; ends, links or a residue may be inferred. Residues, ends and D or L forms follow the SMILES beside them.

How the values were obtained:
MDA177Tu cells [1] = experiment: Subcellular fractionation study; format: cell-based, human; details: fluorescence microscopy and subcellular fractionation
MDA177Tu cells [2] = experiment: Competition assay of FITC-HN-1 internalization; format: cell-based, human; details: competitor provided in excess
human invasive HNSCC = experiment: In situ peptide-binding assay on cryostat sections of primary HNSCC biopsy; details: 2.6 uM, 12 h at 25 C
HNSCC cells = experiment: Transfer of liposome-DNA complexes into cells; format: cell-based, human
MDA177Tu cells [3] = test system: MDA177Tu cells
human HNSCC cell lines = experiment: In vitro internalization assay (fluorescence microscopy), HNSCC cell lines

In the case of CC[C@H](C)[C@H](NC(=O)[C@H](CC(N)=O)NC(=O)[C@H](CC(C)C)NC(=O)[C@@H]1CCCN1C(=O)[C@H](CO)NC(=O)[C@@H](N)[C@@H](C)O)C(=O)N[C@@H](Cc1c[nH]cn1)C(=O)N[C@@H](CC(N)=O)C(=O)NCC(=O)N[C@@H](CCC(N)=O)C(=O)N[C@@H](CCCCN)C(=O)N[C@@H](CC(C)C)C(N)=O [HN-1] (H-TSPLNIHNGQKL-NH2; N-terminus and C-terminus assumed), the “subcellular location of internalized peptide” value (MDA177Tu cells [1]) is reported as “mainly in the cytoplasm; also recorded: localized in cytoplasm”, the “effect of excess unlabeled competitor on internalization of FITC-HN-1” value (MDA177Tu cells [2]) is reported as “blocked” and the “binding to invasive cancer cells versus adjacent nonmalignant squamous epithelium” value (human invasive HNSCC) is reported as “bound preferentially”. For the same compound, the “transfer of liposome-DNA complexes into cells” value (HNSCC cells) was “enhance”, the “fluorescence pattern under higher magnification” value (MDA177Tu cells [3]) was “punctate fluorescence pattern” and the “internalization after conjugating to Texas Red” value (MDA177Tu cells [3]) was “observed”. For the same compound, the “internalization in PBS instead of growth medium” value (human HNSCC cell lines; PBS) was “also occurred in PBS” and the “internalization into HNSCC cells in vitro” value (human HNSCC cell lines; fluorescent dye-conjugated peptide, fluorescence microscopy) was “documented”.
